Primary screen of a compound library

Amino acid sequences for entries named in this document (tags omitted).
UniProt P9WPC5, whole entry: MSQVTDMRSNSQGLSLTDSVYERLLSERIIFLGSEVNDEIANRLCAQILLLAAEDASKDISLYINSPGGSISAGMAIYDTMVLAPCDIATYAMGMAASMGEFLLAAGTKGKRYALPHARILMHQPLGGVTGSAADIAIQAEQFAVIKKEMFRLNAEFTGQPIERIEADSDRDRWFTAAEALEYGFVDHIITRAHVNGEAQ
UniProt P9WPC3, whole entry partner: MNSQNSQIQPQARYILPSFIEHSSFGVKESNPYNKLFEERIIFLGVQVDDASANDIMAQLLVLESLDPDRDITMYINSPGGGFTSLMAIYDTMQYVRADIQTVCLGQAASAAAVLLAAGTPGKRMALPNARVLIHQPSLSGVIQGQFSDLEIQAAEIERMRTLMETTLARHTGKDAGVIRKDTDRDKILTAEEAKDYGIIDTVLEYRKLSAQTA
UniProt P9WNZ1, whole entry: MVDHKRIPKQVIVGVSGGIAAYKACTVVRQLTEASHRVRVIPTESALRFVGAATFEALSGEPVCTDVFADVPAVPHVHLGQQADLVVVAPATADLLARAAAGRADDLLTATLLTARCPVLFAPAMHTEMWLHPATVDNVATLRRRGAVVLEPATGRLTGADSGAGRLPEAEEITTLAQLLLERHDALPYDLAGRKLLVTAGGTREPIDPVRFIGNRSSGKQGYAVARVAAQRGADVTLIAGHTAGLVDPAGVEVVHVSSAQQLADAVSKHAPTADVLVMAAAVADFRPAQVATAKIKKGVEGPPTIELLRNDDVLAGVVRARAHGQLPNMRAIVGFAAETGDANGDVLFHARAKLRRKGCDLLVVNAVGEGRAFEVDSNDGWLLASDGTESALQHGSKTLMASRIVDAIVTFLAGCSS

Source: ChEMBL document CHEMBL3988442, “University of Dundee, Small-Polar-MMV Screening Library” (2021).

Toxoplasma: 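Assay of Toxoplasma gondii numbers, read through their beta-galactosidase reporter with a colour substrate. Tested at 10 µM. Higher reads as fewer parasites (inferred from which compounds were picked for retests). About 67,000 compounds were tested under these conditions; 0.38% (about 260) showed 50% or more at least once.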
ClpP1P2: 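ClpP1P2, Mycobacterium tuberculosis (UniProt P9WPC5 and UniProt P9WPC3). Protease assay of ClpP1P2, read by the AMC dye that it sets free. Concentration: 50 µM. Higher reads as stronger inhibition, judged from the few compounds that gave an IC50. Most other retested compounds had strongly negative values. About 69,000 compounds were tested under these conditions; 0.015% (about 10) showed 50% or more at least once.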
T. brucei: 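Whole-parasite assay of Trypanosoma brucei over 72 hours; the read-out is not stated. Concentration: 30 µM. The record gives no direction; compounds that gave an IC50 in retests scored well above the rest, so higher reads as stronger inhibition. Values scatter widely below zero; nearly all retest evidence comes from the higher of the two concentrations used. About 64,000 compounds were tested under these conditions; 1.5% (about 940) showed 50% or more at least once.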
CoaBC: 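Coenzyme A biosynthesis protein CoaBC, Mycobacterium tuberculosis (UniProt P9WNZ1). Enzyme assay of CoaBC with a phosphate dye (Biomol Green) read at 650 nm. Tested at 30 µM. Higher reads as stronger inhibition, judged from the few compounds that gave an IC50. Most strong results did not repeat in a second test. Size under these conditions: about 67,000 compounds, about 40 of them at 50% or above in at least one test.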

Each number is a percent effect as filed. The controls that fix the scale are not given in the record; negative values are as filed. Compounds were drawn at random from those tested, without regard to their results. Two or more numbers in one place are separate tests of the same structure; such repeats can differ widely. A dash means the value is not listed here; it may have been measured.

structure	Toxoplasma	ClpP1P2	T. brucei	CoaBC
CC(C(=O)N1CCc2ccccc21)N1CCc2cncnc2C1 (stereo not drawn)	3.659	5.092	-13.62	7.579
O=C([C@@H]1C[C@@H]2CCN(Cc3ccco3)C[C@H]2O1)N1CCCO1	-	-2.335	-	11.16
CCOC(=O)CNC(=O)NCc1cccn1Cc1ccc(F)cc1	12.01	-8.679	-14.83	1.772
CC(C)SCc1cccc(NC(=O)NC(C)c2nc[nH]n2)c1 (stereo not drawn)	-0.8582	-0.7888	-30.93	-4.756
CC(C)N1CCCC2(CCN(C(=O)CCCn3cccn3)C2)C1=O (stereo not drawn)	-2.024	-4.318	-29.11	1.19
Cc1nn(C)cc1C(=O)NCc1csc(C2CC2)n1	13.65	6.116	-42.34	-19.01
COCCCN1CCCC12CCN(Cc1cccnc1OC)CC2	-	6.934	-	-
O=C(NCc1ccccc1)N1CCC(Oc2ncccc2Cl)CC1	-0.1408	-2.382	-68.78	-7.143
O=C(O)C(F)(F)F.O=C(O)C(F)(F)F.[H][C@@]12CCN(c3ccccc3)C[C@]1([H])[C@H](C(=O)Nc1cccnc1C)CCO2	-22.9	-	1.237	-
COc1ccc(CNC(=O)Nc2ccc(=O)n(C)c2)cc1	14.5	4.001	-1.731	-
COc1ccnc(N2CCN(C(=O)N3CCOCC3)CC2)n1	9.574	-0.9318	-14.86	0.6519
Cc1nn(-c2ccc(F)cc2)c2[nH]nc(N)c12	-3.793	8.283	-108.4	7.372
Cc1ccc(C(=O)NC2CCN(C(=O)Nc3ccccn3)CC2)o1	-13.05	9.485	-60.81	6.41
O=C(c1scc2c1OCCO2)N1CCC(Cc2cccc(CO)c2)C1 (stereo not drawn)	25.06	-12.32	-0.2245	3.069
CCc1nc(C2CCCN(c3ncccn3)C2)no1 (stereo not drawn)	3.084	9.07	-42.54	8.571
CCc1nnc(CN2CCN(C(C)=O)CC2)o1	-2.528	-5.141	-61.76	-7.372
CC(=O)NCCNC(=O)CN1CCCC1c1c(C)nn(C)c1C (stereo not drawn)	-4.598	-12.09	-40.67	0.3492
O[C@@]1(c2ccccn2)CC[C@H]2CN(Cc3cccc(Cl)c3Cl)C[C@H]21	-	-12.48	-	1.389
CSc1ccc(CN(C)Cc2noc(C(C)(C)C)n2)cc1	7.746	-9.183	-12.59	2.538
CN(C)c1ncccc1CNC(=O)N(Cc1ccccc1F)C1CC1	-2.858	-12.44	-51.15	2.2
Fc1ccc(F)c(CN2CCC(c3cc4ncccc4cn3)CC2)c1	-	-34.16	-	16.39
[H][C@@]12C[C@@H](OCc3ccccc3)C[C@]1([H])CN(Cc1cnc(C)nc1)C2	-8.243	-	6.96	-
CCc1nnsc1C(=O)NCCc1nnc2n1CCC2	-15.23	-2.831	-8.903	-5.123
CC(C)c1nnc2n1CCN(C(=O)c1cc3cc(F)ccc3[nH]1)C2	-20.12	-24.08	22.79	3.226
CN(Cc1cccs1)C1CCC[C@@H]2CN(C(=O)c3cnccn3)C[C@H]12 (stereo partly drawn)	-	-0.6862	-	-
Cc1nc(C)n(CC2CCCN(CCNC(=O)OC(C)(C)C)C2)n1 (stereo not drawn)	4.312	5.271	32.34	8.462
c1coc(CN2CCc3onc(Cn4cccc4)c3C2)c1	-	-4.693	-	2.254
CC(C)(C)n1cc(CNC2CCN(C(=O)c3ccncc3)CC2)cn1	2.697	-6.328	-38.31	-
O=C1CC(c2ccncc2)c2c(sc3c2CCCC3)N1 (stereo not drawn)	1.52	-0.5505	-26.26	-1.79
Cc1nc(Nc2cnccn2)cc(C2CCN(CCO)C2)n1.O=CO (stereo not drawn)	-11.39	-	22.76	-
CCOc1cccc(COC(=O)c2scnc2C)n1	0.1142	-0.5876	-8.576	-
CN(Cc1cn2c(n1)CN(Cc1ccsc1)CC2)Cc1ccco1.O=C(O)C(F)(F)F.O=C(O)C(F)(F)F	6.78	-	-24.85	-
[H][C@@]12COC[C@]1([H])[C@@H](OCc1cccnc1)CN2C(=O)C1CCOCC1	1.634	-	-46.31	-
Cc1ccc(CN2CCN(C3CCC3)CC2CCO)o1 (stereo not drawn)	-10.85	-10.57	0.2965	3.883
CCN(Cc1cc(Cl)ccc1OC)Cc1nccn1C	0	-4.57	-48.07	-5.484
COc1cn(-c2ccccc2)nc1C(=O)NCCN1CCCC(C)C1 (stereo not drawn)	-4.441	-4.134	22.16	6.323
Nc1cc2c(nn1)CCN(C(=O)Cc1ccc3c(c1)CCCC3)C2	2.193	3.705	7.885	7.269
CN(C)S(=O)(=O)NC1CC(=O)N(c2ccccc2Cl)C1 (stereo not drawn)	-0.9278	-8.558	-9.925	-17.19
O=C(c1cncc2ccccc12)N1CCC[C@@H]1CO	19.21	-2.507	7.475	4.845
COC(=O)C(NC(=O)C(C)C)c1cc(F)ccc1F (stereo not drawn)	2.435	-6.58	5.807	2.892
[H][C@@]12C[C@@H](C(=O)NC)N(C(C)C)[C@]1([H])CN(C(=O)c1ccccn1)C2	3.654	-	-52.03	-
Cc1ccc(Cl)cc1N1CCN(CC(=O)NCc2ccco2)CC1	7.972	-24.23	-	6.774
O=C(O)C(F)(F)F.[H][C@]12CCNCC[C@@]1([H])S(=O)(=O)N(CCc1cccc(OC)c1)C2	0.252	-	-12.42	-
Cc1cccnc1[C@]1(O)CC[C@H]2CN(Cc3cccc(Cl)c3Cl)C[C@H]21	-	0.5749	-	6.053
COC1CCN(c2ccc(F)cc2CN(C)S(C)(=O)=O)CC1	16.12	-8.445	-44.56	-2.217
O=C(CC1CCCO1)Nc1ccc2c(ccn2CCN2CCOCC2)c1 (stereo not drawn)	-5.412	6.647	-24.61	-1.831
Cn1cnc(S(=O)(=O)N2CCCc3c(F)cc(F)cc32)c1Cl	25.35	10.13	28.21	-2.066
O=C(NCCn1nc2ccccn2c1=O)c1cc[nH]n1	1.796	-14.22	23.71	20 & 1.058
Cc1cc(CCC(=O)N2CCOCC2)ccc1Br	-18.85	-9.969	4.881	7.968
[H][C@@]12COC[C@@H](CC(=O)NCc3cnc(C)cn3)[C@]1([H])CN(C1CCC1)C2	0.5851	-	-52.49	-
COCCNC(=O)c1sc(Nc2ccc(Cl)cn2)nc1C	-2.032	19.23	8.005	-3.634
CN(C)c1cc(CNC(=O)Nc2ccc(C#N)cc2)ccn1	-35.84	-18.58	39.76	3.158
CNc1nc(C2CCN(C(=O)CC3CCCC3)C2)nc2c1CN(C)CC2 (stereo not drawn)	2.588	-23.97	-10.25	3.585
CCn1cnnc1CNC(=O)N(C)Cc1ccccc1OC	6.615	-14.14	-11.41	5.063
COc1c(CNC2CCCOc3ccc(F)cc32)c(C)nn1C.Cl (stereo not drawn)	12.57	-	-5.68	-
NC(=O)c1cnn2c1NCC(CNCCCc1ccccc1)C2 (stereo not drawn)	-13.43	-23.25	9.144	2.155
Cc1ncsc1C(=O)NCCSCCCO	0.6462	16.78	-13.92	8.094
CO[C@@H]1CCN(c2ncccn2)[C@H]1Cc1ccccc1	11.21	-13.2	28.92	0.9677
Cc1cccc(CN2CCC3(CC(C(=O)NCC(C)C)=NO3)C2)c1 (stereo not drawn)	2.409	8.819	-41.81	-1.22
Cc1noc(C)c1CNC(=O)N1CCC(OCC2CC2)CC1	10.13	-14.52	-27.76	-0.8485
O=C(CSc1ccc2c(c1)OCCO2)NS(=O)(=O)c1cc(F)ccc1F	21.18	-6.089	61.54	-4.142
CCCc1nnnn1Cc1cn2c(C)cccc2n1	7.495	-25.11	-5.299	5.366
N#Cc1cccc(CN2CCn3cc(CNC(=O)C4CCC4)nc3C2)c1	16.34	-7.486	-3.104	9.121
CCN(CC)c1ncnc2c1CCN(c1ccc(C)nn1)CC2	-9.17	-9.001	-78.62	0.2475
CC(C)c1n[nH]c(C2CN(CCc3cccs3)CCO2)n1 (stereo not drawn)	0.5676	-30.17	-	1.877
CC(C)N(Cc1ccc(C#N)cc1)C(=O)Nc1ccncc1	4.082	-2.752	-2.357	-7.258
O=C1[C@H]2CN(Cc3ccoc3)C[C@H]2CN1Cc1cccnc1	-	-12.75	-	4.822
O=C(c1nc(Cc2c[nH]c3ccccc23)no1)N1CCOCC1	-	-6.371	-31.01	-3.524

5 of the entries, repeated:

structure	Toxoplasma	ClpP1P2	T. brucei	CoaBC
CCc1nnc(CN2CCN(C(C)=O)CC2)o1	-2.528	-5.141	-61.76	-7.372
Cc1cc(CCC(=O)N2CCOCC2)ccc1Br	-18.85	-9.969	4.881	7.968
[H][C@@]12C[C@@H](OCc3ccccc3)C[C@]1([H])CN(Cc1cnc(C)nc1)C2	-8.243	-	6.96	-
CN(C)c1ncccc1CNC(=O)N(Cc1ccccc1F)C1CC1	-2.858	-12.44	-51.15	2.2
O=C(O)C(F)(F)F.O=C(O)C(F)(F)F.[H][C@@]12CCN(c3ccccc3)C[C@]1([H])[C@H](C(=O)Nc1cccnc1C)CCO2	-22.9	-	1.237	-